Laboratory results from patent publication US20110300139A1 (GENE TECHNO SCIENCE, published 2011).
No constants are given. Whether binding was seen depends on the method and setting. Some results given as binding are weak or reduced against the parent protein; the word gives no strength.

B1: mouse K33N monoclonal antibody (hybridoma FERM BP-10830) (antibody, mouse IgG1, V domains shown)
VH: QVQLQQSGPELVKPGASVKISCKASGYSFTSYYMNWVKKRPGQGLEWIGWIFPGSGNTKYNEKFKGKATLTADTSSSTAYMQVSSLTSEDSAVYFCARSWVSYERGYYFDYWGQGTSLTVSS
VL: DIQMTQSPASLAASVGETVTLTCRASENIYYSLAWYQQKQGKSPQLLIYNANSLEDGVPSRFSGSGSGTQYSMKINSMQPEDTATYFCKQAYDVPYTFGGGTKLEIK
notes: also called mouse K33N antibody
B2: chimeric K33N IgG1/κ antibody (antibody, V domains shown)
VH: B1 VH
VL: B1 VL
notes: Mouse K33N variable regions on human gamma-1 and kappa constant regions (vector pChK33N); also called ChK33N
B3: humanized K33N IgG1/κ antibody (antibody, V domains shown)
VH: QVQLVQSGAEVKKPGASVKVSCKASGYSFTSYYMNWVRQAPGQRLEWIGWIFPGSGNTKYNEKFKGKATLTADTSASTAYMELSSLRSEDTAVYYCARSWVSYERGYYFDYWGQGTLVTVSS
VL: DIQMTQSPSSLSASVGDRVTITCRASENIYYSLAWYQQKPGKAPKLLIYNANSLEDGVPSRFSGSGSGTQYTLTISSLQPEDFATYYCKQAYDVPYTFGQGTKVEIKR
notes: also called HuK33N

Key:
[1] = target: T1, human α9 integrin (human, UniProt Q13797 30-1035); assay: hybridoma screening on cells
T1 sequence: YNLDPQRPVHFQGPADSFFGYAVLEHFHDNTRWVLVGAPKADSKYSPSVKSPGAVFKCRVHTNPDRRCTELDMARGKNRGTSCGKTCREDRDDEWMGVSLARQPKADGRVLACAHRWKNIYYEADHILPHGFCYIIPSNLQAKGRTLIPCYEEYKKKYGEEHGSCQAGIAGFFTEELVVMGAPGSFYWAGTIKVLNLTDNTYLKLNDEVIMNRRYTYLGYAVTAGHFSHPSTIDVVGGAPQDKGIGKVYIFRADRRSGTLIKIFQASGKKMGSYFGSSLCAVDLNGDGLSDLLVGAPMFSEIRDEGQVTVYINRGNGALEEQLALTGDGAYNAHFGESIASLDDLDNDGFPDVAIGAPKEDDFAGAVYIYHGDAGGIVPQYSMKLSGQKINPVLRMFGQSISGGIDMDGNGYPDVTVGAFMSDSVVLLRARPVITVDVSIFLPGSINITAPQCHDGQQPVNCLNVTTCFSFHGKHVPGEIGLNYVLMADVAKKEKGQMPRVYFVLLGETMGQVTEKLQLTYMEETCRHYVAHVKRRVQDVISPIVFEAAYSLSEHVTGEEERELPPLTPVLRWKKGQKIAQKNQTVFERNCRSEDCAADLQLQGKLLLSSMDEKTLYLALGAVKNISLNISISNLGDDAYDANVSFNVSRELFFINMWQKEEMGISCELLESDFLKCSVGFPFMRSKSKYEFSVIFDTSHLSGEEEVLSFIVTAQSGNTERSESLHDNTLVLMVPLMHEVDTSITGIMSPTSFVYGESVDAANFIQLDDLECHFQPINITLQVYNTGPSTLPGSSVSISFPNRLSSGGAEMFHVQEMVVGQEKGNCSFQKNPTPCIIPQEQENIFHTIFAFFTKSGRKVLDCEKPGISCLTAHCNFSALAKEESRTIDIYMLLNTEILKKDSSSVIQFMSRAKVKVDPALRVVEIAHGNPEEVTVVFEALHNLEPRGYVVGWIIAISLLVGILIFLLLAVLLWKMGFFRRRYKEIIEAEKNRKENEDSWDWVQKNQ

[2] = target: T1, human α9 integrin; assay: cell ELISA on CHO/huα9 cells, transiently expressed antibody

Row | Binder | binding [1] | binding [2]
1 | B1 | binds | –
2 | B2 | – | binds
3 | B3 | – | binds
